Compound in this experiment: Nc1nc2c(ncn2[C@@H]2O[C@H](COP(=O)(O)OP(=O)(O)OP(=O)(O)O)[C@@H](O)[C@H]2O)c(=O)[nH]1 [guanosine triphosphate]
The experiment in a line: NP40-soluble protein abundance relative to vehicle (solubility fold change) (ratio); higher = more soluble protein in presence of GTP. As for the experimental part: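 Solubility proteome profiling in Jurkat crude lysate. Lysate was treated with Mg-GTP (0.1-10 mM) for 10 min at room temperature and 3 min at 37 °C, then solubilised with 0.8% NP40 and benzonase, followed by ultracentrifugation. Proteins were quantified by TMT10 LC-MS/MS; the value is the NP40-soluble abundance relative to the NP40-processed vehicle, from 3 independent experiments.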

Protein sequences, listed by entry. Tags and fused reporters are not part of them. Lines headed by an entry give the natural chain unless they say otherwise; changes in a name come on top.
UniProt O43924: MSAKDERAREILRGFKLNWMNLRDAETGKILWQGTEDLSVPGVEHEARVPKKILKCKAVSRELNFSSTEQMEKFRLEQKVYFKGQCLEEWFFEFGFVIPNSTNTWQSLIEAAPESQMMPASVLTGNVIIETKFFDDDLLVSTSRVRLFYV
UniProt O43583: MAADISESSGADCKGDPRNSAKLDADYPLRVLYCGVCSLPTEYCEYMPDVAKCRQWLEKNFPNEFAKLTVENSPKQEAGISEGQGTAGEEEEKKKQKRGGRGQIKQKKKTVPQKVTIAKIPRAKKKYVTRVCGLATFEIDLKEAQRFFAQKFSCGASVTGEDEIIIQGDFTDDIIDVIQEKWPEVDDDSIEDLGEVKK
UniProt O60508: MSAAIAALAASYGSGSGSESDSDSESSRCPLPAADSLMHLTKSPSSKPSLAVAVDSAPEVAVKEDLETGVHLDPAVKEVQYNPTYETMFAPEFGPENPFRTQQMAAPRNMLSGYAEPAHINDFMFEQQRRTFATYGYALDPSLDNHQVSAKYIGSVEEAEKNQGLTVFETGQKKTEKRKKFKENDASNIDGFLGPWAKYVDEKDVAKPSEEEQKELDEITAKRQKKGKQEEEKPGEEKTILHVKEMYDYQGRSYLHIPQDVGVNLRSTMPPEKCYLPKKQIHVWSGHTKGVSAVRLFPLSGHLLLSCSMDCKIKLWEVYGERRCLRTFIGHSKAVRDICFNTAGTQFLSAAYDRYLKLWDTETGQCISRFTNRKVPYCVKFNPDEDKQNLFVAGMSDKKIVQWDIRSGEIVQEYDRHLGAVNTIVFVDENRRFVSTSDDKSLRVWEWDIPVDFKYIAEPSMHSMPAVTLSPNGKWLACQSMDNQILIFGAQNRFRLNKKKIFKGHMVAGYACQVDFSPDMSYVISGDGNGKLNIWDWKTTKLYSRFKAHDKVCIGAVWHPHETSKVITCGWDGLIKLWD

± gives the standard deviation of the averaged measurements. Some of the results follow.

For the target PDE6D (UniProt O43924), the NP40-soluble protein abundance (concentration: 0.1mM) came to 1.08 ± 0.056; the NP40-soluble protein abundance (concentration: 0.5mM) was 1.15 ± 0.019; the NP40-soluble protein abundance (concentration: 1mM) was 1.04 ± 0.14; the NP40-soluble protein abundance (concentration: 2mM) is 1.03 ± 0.03; the NP40-soluble protein abundance (concentration: 4mM) was 1.03 ± 0.091; the NP40-soluble protein abundance (concentration: 6mM) stood at 0.985 ± 0.15. Besides, the NP40-soluble protein abundance is, setting by setting: (concentration: 8mM) 0.8972 ± 0.0058; (concentration: 10mM) 0.9622 ± 0.0046.

Consider DENR (UniProt O43583), for which the NP40-soluble protein abundance is, setting by setting: (concentration: 0.1mM) 0.841 ± 0.046; (concentration: 0.5mM) 0.805 ± 0.045; (concentration: 1mM) 0.91 ± 0.046; (concentration: 2mM) 0.862 ± 0.062; (concentration: 4mM) 0.861 ± 0.054; (concentration: 6mM) 0.861 ± 0.082. Moreover, the NP40-soluble protein abundance is 0.818 ± 0.1 (concentration: 8mM) and 0.863 ± 0.042 (concentration: 10mM).

For the target UniProt O60508 and related entries, the NP40-soluble protein abundance turned out to be 1.07 ± 0.031 (concentration: 0.1mM); 1.1 ± 0.017 (concentration: 0.5mM); 1.09 ± 0.022 (concentration: 1mM); 1.072 ± 0.0076 (concentration: 2mM); 1.05 ± 0.034 (concentration: 4mM); 1.07 ± 0.053 (concentration: 6mM). The NP40-soluble protein abundance by setting is: (concentration: 8mM) 1.11 ± 0.013; (concentration: 10mM) 1.08 ± 0.042.

Regarding UniProt O60504-2|O60504, the NP40-soluble protein abundance (concentration: 0.1mM) was 1 ± 0.034; the NP40-soluble protein abundance (concentration: 0.5mM) is 0.965 ± 0.037; the NP40-soluble protein abundance (concentration: 1mM) was 0.931 ± 0.013; the NP40-soluble protein abundance (concentration: 2mM) came to 0.914 ± 0.022; the NP40-soluble protein abundance (concentration: 4mM) was determined as 0.921 ± 0.065; the NP40-soluble protein abundance (concentration: 6mM) is 0.923 ± 0.079. The NP40-soluble protein abundance reads like this: (concentration: 8mM) 0.905 ± 0.069; (concentration: 10mM) 0.91 ± 0.08.

Consider UniProt O00154-4|K7EKP8, for which the NP40-soluble protein abundance came to 0.933 ± 0.058 (concentration: 0.1mM); 0.94 ± 0.066 (concentration: 0.5mM); 0.892 ± 0.044 (concentration: 1mM); 0.902 ± 0.045 (concentration: 2mM); 0.907 ± 0.046 (concentration: 4mM); 0.89 ± 0.043 (concentration: 6mM). In addition, the NP40-soluble protein abundance runs as follows: (concentration: 8mM) 0.873 ± 0.069; (concentration: 10mM) 0.866 ± 0.046.

Source of the values: the supplement of paper PMC6411743.
